Assay results taken from article doi:10.1101/2024.10.01.616059 (bioRxiv, 2024).
Numbering of substitutions follows the chain as printed. Results are given in words; binding and its absence hold for the method and conditions named. In cells and extracts the contact can be indirect. Here binding means that the protein was enriched with, or labelled near, the bait; the list need not be complete. Where a sequence is shown, tags or fusion partners need not be part of it.

By UniProt entry, the sequences of proteins in these tests, tags left out.
UniProt Q8R574: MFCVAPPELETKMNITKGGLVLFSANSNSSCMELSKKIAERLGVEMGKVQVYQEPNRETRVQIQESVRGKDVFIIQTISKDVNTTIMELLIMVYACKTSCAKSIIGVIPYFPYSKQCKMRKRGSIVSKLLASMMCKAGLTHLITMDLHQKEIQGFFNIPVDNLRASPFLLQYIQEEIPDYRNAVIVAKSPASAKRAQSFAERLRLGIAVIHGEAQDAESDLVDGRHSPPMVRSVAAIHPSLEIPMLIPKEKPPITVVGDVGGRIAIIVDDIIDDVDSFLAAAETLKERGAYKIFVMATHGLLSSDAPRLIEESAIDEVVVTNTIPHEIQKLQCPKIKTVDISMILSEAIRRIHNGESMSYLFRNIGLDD

Assays:
PRPS1-GFP [1] = molecular target: T1, PRPS1-GFP (UniProt Q9D7G0); assay: affinity purification with mass spectrometry; GFP immunoprecipitation (GFP-Trap magnetic particles) from lysates of NIH3T3 cells stably expressing GFP-tagged paralogs; lysis 50 mM Tris pH 7.5, 200 mM NaCl, 1% digitonin; washes with 1.5 M NaCl, 0.5% Triton X-100; eluates by Coomassie gel and nanoLC-MS/MS; NES-GFP cells as control
T1 sequence: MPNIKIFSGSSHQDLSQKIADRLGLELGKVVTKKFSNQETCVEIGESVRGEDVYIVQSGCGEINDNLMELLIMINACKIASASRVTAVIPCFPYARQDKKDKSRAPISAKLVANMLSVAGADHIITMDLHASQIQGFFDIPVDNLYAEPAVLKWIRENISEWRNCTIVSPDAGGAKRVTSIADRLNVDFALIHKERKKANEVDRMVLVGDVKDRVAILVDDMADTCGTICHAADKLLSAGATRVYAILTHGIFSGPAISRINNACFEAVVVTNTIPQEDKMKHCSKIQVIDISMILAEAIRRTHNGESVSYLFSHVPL

[2] = molecular target: T2, PRPSAP2-GFP (long PRPSAP2 isoform) (UniProt O60256); assay: as above
T2 sequence: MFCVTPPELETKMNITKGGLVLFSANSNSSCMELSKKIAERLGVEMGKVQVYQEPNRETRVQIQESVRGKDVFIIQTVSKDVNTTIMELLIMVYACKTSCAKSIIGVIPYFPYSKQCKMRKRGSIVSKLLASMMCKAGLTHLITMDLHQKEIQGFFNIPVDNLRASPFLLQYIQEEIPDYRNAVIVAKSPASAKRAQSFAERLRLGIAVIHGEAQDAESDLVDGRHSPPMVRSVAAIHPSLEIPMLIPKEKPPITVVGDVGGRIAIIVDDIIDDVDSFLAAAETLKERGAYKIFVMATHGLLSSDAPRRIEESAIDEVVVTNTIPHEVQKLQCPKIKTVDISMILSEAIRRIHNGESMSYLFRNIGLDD

[3] = molecular target: T3, PRPSAP1-GFP (short PRPSAP1 isoform) (UniProt Q14558); assay: as above
T3 sequence: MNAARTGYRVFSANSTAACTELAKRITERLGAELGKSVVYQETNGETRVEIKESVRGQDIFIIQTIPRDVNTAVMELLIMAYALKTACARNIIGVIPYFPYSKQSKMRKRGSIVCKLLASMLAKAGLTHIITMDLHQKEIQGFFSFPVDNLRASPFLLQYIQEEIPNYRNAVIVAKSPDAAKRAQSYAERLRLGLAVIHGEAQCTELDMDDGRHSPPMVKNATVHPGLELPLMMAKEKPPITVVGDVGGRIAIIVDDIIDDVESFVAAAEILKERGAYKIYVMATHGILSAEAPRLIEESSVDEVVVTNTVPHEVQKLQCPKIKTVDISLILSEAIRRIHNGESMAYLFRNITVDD

PRPS2-GFP [4] = molecular target: T4, PRPS2-GFP (UniProt Q9CS42); assay: as above
T4 sequence: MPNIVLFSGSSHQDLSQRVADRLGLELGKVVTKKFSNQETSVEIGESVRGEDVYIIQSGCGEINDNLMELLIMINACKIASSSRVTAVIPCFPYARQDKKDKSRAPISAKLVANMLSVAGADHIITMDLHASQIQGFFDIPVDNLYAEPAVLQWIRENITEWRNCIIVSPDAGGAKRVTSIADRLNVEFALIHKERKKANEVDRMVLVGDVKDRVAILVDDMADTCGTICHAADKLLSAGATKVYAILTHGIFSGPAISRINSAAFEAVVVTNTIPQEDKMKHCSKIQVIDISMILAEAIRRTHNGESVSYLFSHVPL

PRPS1-GFP [5] = molecular target: T1, PRPS1-GFP; assay: affinity purification with mass spectrometry; GFP immunoprecipitation (GFP-Trap magnetic particles) from lysates of HEK293T cells stably expressing GFP-tagged paralogs; lysis 50 mM Tris pH 7.5, 200 mM NaCl, 1% digitonin; washes with 1.5 M NaCl, 0.5% Triton X-100; eluates by Coomassie gel and nanoLC-MS/MS; NES-GFP cells as control
[6] = molecular target: T2, PRPSAP2-GFP (long PRPSAP2 isoform); assay: as above
[7] = molecular target: T3, PRPSAP1-GFP (short PRPSAP1 isoform); assay: as above
PRPS2-GFP [8] = molecular target: T4, PRPS2-GFP; assay: as above

B1: phosphoribosyl pyrophosphate synthetase 2 (PRPS2), mouse, endogenous (enzyme, UniProt Q9CS42 1-318, looked up)
chain: T4 sequence
notes: PRPS2, mouse, endogenous protein of NIH3T3 cells and mouse tissue; also called P2; source: endogenous, NIH3T3 (parental and CRISPR knockout clones), native lysate; endogenous, C57BL/6 mouse kidney, native lysate
binding (PRPS1-GFP [1]): binds
binding [2]: binds
binding [3]: binds

B2: PRPS-associated protein 1 (PRPSAP1), mouse, endogenous (protein, UniProt Q9D0M1 1-356)
chain: T3 sequence with S301P, V302I, V315L
binding [2]: binds
binding (PRPS2-GFP [4]): binds

B3: phosphoribosyl pyrophosphate synthetase 2 (PRPS2), human, endogenous (enzyme, UniProt P11908 1-318)
chain: T4 sequence with T160A, R163K, S263N, S285T
binding (PRPS1-GFP [5]): binds
binding [6]: binds
binding [7]: binds

B4: PRPS1L1, testis-specific PRPS isoform, human, endogenous (enzyme, UniProt P21108 1-318)
chain: MPNIKIFSGSSHQDLSQKIADRLGLELGKVVTKKFSNQETCVEIDESVRGEDVYIVQSGCGEINDSLMELLIMINACKIASASRVTAVIPCFPYARQDKKDKSRSPISAKLVANMLSIAGADHIITMDLHASQIQGFFDIPVDNLYAEPTVLKWIRENIPEWKNCIIVSPDAGGAKRVTSIADQLNVDFALIHKERKKANEVDCIVLVGDVNDRVAILVDDMADTCVTICLAADKLLSAGATRVYAILTHGIFSGPAISRINTACFEAVVVTNTIPQDEKMKHCSKIRVIDISMILAEAIRRTHNGESVSYLFSHVPL
binding (PRPS1-GFP [5]): binds

B5: phosphoribosyl pyrophosphate synthetase 1 (PRPS1), human, endogenous (enzyme, UniProt P60891 1-318)
chain: T1 sequence
binding (PRPS2-GFP [8]): binds

B6: PRPS-associated protein 1 (PRPSAP1), human, endogenous (protein, UniProt Q14558 1-356)
chain: T3 sequence
binding [6]: binds
binding (PRPS2-GFP [8]): binds

B7: PRPS-associated protein 2 (PRPSAP2), human, endogenous (protein, UniProt O60256 1-369)
chain: T2 sequence
binding (PRPS2-GFP [8]): binds
binding [7]: binds

B8: phosphoribosyl pyrophosphate synthetase 1 (PRPS1), mouse, endogenous (enzyme, UniProt Q9D7G0 1-318)
chain: T1 sequence
binding (PRPS2-GFP [4]): binds

B9: PRPS-associated protein 2 (PRPSAP2), mouse, endogenous (protein, UniProt Q8R574 1-369)
chain: T2 sequence with T5A, V78I, R309L, V328I
binding (PRPS2-GFP [4]): binds
binding [3]: binds
